Source: publication PMC12040169 (PLOS Biology, 2025)
Some of the results follow.

These compounds were tested on T1, CTL2-GFP (C. trachomatis L2/434/Bu, GFP-expressing). Conditions: bulk GFP, single well; 28.5 h, 10 µM; inhibitor.
T1 construct: L2/434/Bu, GFP-expressing
Parameters: species or system HeLa; Intracellular C. trachomatis growth in HeLa cells, bulk GFP fluorescence relative to DMSO

| Structure (SMILES) | % of control remaining [%] |
| --- | --- |
| C#CCNC(=O)C1CCN(c2nc3ccccc3n2CC=C)CC1 [CBK283925] | 101.75 |
| Cn1c2c(c(=O)n(C)c1=O)[C@H]1[C@H](O)[C@H](O)C[C@H]1[C@@H](C(O)c1ccccc1)N2 (stereo partly shown) [CBK303236] | 116.128 |
| O=C(CCc1ccccc1)N1CCCC1c1cccc(Cc2ccccc2F)n1 (stereo not shown) [CBK286208] | 94.3114 |
| CC(NC(=O)CN1CCCCCC1=O)c1cc2cc(Cl)ccc2o1 (stereo not shown) [CBK281448] | 125.014 |
| CCN(CC)C(=O)c1cccc(NS(=O)(=O)c2cccc3cccnc23)c1 [CBK038999] | 107.18 |
| Oc1cccc2c1CC(NCC(F)(F)C(F)(F)F)CC2 (stereo not shown) [CBK007596] | 149.02 |
| O=C(Nc1ccc(F)cc1)N1Cc2nc[nH]c2C[C@H]1c1nc(-c2ccc(F)cc2)no1 [CBK288970] | 123.68 |
| Cc1nc(C2CCN(C(=O)C3CCC3)CC2)nc2c1CCCN2CCc1ccccc1 [CBK285645] | 113.928 |
| CCCc1nc(SC)ncc1C(=O)Nc1nnc(SCC)s1 [CBK291198] | 94.2336 |
| CC(C)c1nn(C)c(N(C)C)c1CNCc1cscn1 [CBK304321C] | 132.027 |
| O=C(NCC1COc2ccccc2O1)N1CCCCC1CO (stereo not shown) [CBK156162] | 151.368 |
| Cc1ccc(S(=O)(=O)N(CCC#N)CCN2CCCC2)cc1 [CBK028055] | 82.9869 |
| FC(F)(F)c1nc2ccccc2[nH]1 [CBK028224] | 105.898 |
| CCN(CC)C(=O)c1c(F)ccc(F)c1C(=O)O [CBK022303] | 142.441 |
| CCCC(=O)N(C)C(CO)c1cc(OC)ccc1Br (stereo not shown) [CBK304694] | 86.8166 |
| CCN(CC)CCn1c(OC)cc(=O)[nH]c1=O [CBK264411] | 100 |
| CCCn1c(N)c(C(=O)CSc2ncnc3sc4c(c23)CCCC4)c(=O)[nH]c1=O [CBK297556] | 136.379 |
| CC1=NN(c2ccc([N+](=O)[O-])cc2)C(=O)/C1=C\NCCc1ccc(S(N)(=O)=O)cc1 [CBK263006] | 100 |
| S=c1[nH]nc(-c2ccco2)n1-c1ccc(Cl)cc1 [CBK023586] | 160.456 |
| COC(=O)c1ccc(CSc2nnc(-c3ccc(OC)cc3)n2C(C)C)o1 [CBK297523] | 102.979 |
| Cc1ccc(-c2nnc(COc3ccc(-c4cnc5ccccc5n4)cc3)o2)cc1 [CBK269721] | 110.451 |
| O=C(O)CNS(=O)(=O)c1ccc(Cl)c(Cl)c1 [CBK266981] | 154.071 |
| Cc1cc(=O)oc2cc(NC(=S)NNC(=O)c3ccc4c(c3)c(C)c(C)n4Cc3ccccc3)ccc12 [CBK267138] | 164.906 |
| Clc1ccc(CN2CCC(Oc3nccnc3OC3CCCCC3)CC2)cc1 [CBK082856T] | 117.738 |
| CCCCOc1ccc(-c2nonc2NC(=O)COc2ccccc2Cl)cc1 [CBK299792] | 107.728 |
| COCCN1C(=O)C2(CC(=O)N(CC3CCCCC3)C2=O)c2cc(OC)ccc21 (stereo not shown) [CBK075166] | 105.549 |
| O=C(NC(=O)N1CCSC1)c1c(Cl)cccc1Cl [CBK028794] | 126.205 |

| Structure (SMILES) | % of control remaining [%] |
| --- | --- |
| O=[N+]([O-])c1ccc(CN2CCN(C/C=C/c3ccccc3)CC2)o1 [CBK026551] | 100.779 |
| O=C1NCCNC(=O)C2(C/C=C/COc3ccccc31)CCN(C(=O)c1cncs1)CC2 [CBK292023] | 118.878 |
| COc1cc(C)ccc1S(=O)(=O)Nc1cccc2cc[nH]c12 [CBK159511] | 101.046 |
| NC(=O)c1ccccc1-c1cnc(N)c(-c2ccc(O)cc2)n1 [CBK115536] | 124.646 |
| OC(Cn1ccc2ccccc21)Cn1c(Cc2ccccc2)nc2ccccc21 (stereo not shown) [CBK267954] | 122.218 |
| CN1Cc2ccccc2-c2ccc(O)cc21 [CBK017804] | 100 |
| C[C@H](Nc1cncc(-c2ccc3ccccc3c2)n1)c1ccccc1 [CBK065799] | 108.008 |
| CCOC(=O)N1CCC(NS(=O)(=O)c2ccc(OC)c(OC)c2)CC1 [CBK045464] | 90.6517 |
| O=C(C1CC2C=CC1C21CC1)N1CCC(Oc2cccc(F)c2)CC1 (stereo not shown) [CBK281525] | 132.727 |
| Cc1ccc(S(=O)(=O)NCCc2ccccn2)s1 [CBK269223] | 118.404 |
| CC1CCCCC1NC(=O)CSc1cccc2cccnc12 (stereo not shown) [CBK058143] | 90.4719 |
| COc1nccnc1N1CCN(CCCn2c(=O)[nH]c3ccccc32)CC1 [CBK084226] | 128.091 |
| COc1cc(CN2CCNCC2)c2ccn(S(=O)(=O)c3ccccc3Cl)c2c1 [CBK144483T] | 97.3762 |
| Cc1ccc(-c2nc3ccc(C)cc3c(C(=O)OCC(=O)c3cccc([N+](=O)[O-])c3)c2C)cc1 [CBK264436] | 122.734 |
| Cn1cnc2cc(-c3nnn[nH]3)ccc21 [CBK306265] | 155.581 |
| Cc1ccc(CCC(=O)N2CCCC2c2nc3ccccc3[nH]2)o1 (stereo not shown) [CBK284012] | 99.3343 |
| COc1ccc(N(CC(O)CN2CCOCC2)S(=O)(=O)c2ccccc2)cc1 (stereo not shown) [CBK263589] | 100.661 |
| Nc1ccc(-c2ccccc2)c2ccccc12 [CBK084312] | 90.7899 |
| CSc1ccc(/C=C(\C#N)c2nn(-c3ccccc3)c(N)c2C#N)cc1 [CBK262339] | 89.0466 |
| CCCC(=O)N1CCCCC1c1nn(C)cc1-c1onc(C)c1C (stereo not shown) [CBK283409] | 144.197 |
| O=C(NCc1nc2ccccc2[nH]1)c1cc(Br)cnc1NCCOc1ccccc1 [CBK076220] | 109.975 |
| Brc1cccc(/C=N/c2ccc3nc(-c4ccccc4)[nH]c3c2)c1 [CBK261143] | 92.4385 |
| O=C(c1cc(F)c(F)cc1F)N1CCC2(CCCN(CCCn3c(=O)[nH]c4ccccc43)C2)C1 (stereo not shown) [CBK132004] | 129.607 |
| CCOC(=O)c1[nH]c2ccccc2c1NC(=O)c1c(F)ccc(Cl)c1F [CBK160141] | 99.9247 |
| COc1ccc(-n2c(SCC(N)=O)nc3sc4c(c3c2=O)CC(C)(C)OC4)cc1 [CBK263232] | 103.294 |
| CC(Oc1ccccc1)C(=O)N1CCN(C/C=C/c2ccccc2)CC1 (stereo not shown) [CBK269050] | 93.0995 |
| Cn1nc(-c2ccc(S(=O)(=O)Nc3nc(-c4cccnc4)cs3)s2)cc1C(F)(F)F [CBK067270] | 126.448 |

Part of the list above, as tab-separated lines:
Structure (SMILES)	% of control remaining [%]
O=C1NCCNC(=O)C2(C/C=C/COc3ccccc31)CCN(C(=O)c1cncs1)CC2 [CBK292023]	118.878
Cc1ccc(-c2nc3ccc(C)cc3c(C(=O)OCC(=O)c3cccc([N+](=O)[O-])c3)c2C)cc1 [CBK264436]	122.734
Cn1cnc2cc(-c3nnn[nH]3)ccc21 [CBK306265]	155.581

(further entries)

| Structure (SMILES) | % of control remaining [%] |
| --- | --- |
| CCc1nnc2sc(-c3ccccc3Br)nn12 [CBK269533] | 126.626 |
| CCc1cc(CNS(=O)(=O)c2ccc(C)s2)on1 [CBK283066] | 149.014 |
| CCOC(=O)C(NC(=O)c1cn(C)cn1)c1cccc(C)c1C (stereo not shown) [CBK304098] | 102.866 |
| CC(O)c1cc2n(n1)CCN(C(=O)c1csc(Cc3ccccc3)n1)C2 (stereo not shown) [CBK307437] | 126.703 |
| CCn1ncc(S(=O)(=O)N2CCCC(c3ccccc3)C2)c1C (stereo not shown) [CBK282760] | 142.767 |
| Cc1nc2c(C(=O)NCC(F)(F)F)cnn2c(C)c1Cc1ccccc1 [CBK162208] | 101.814 |
| O=S(=O)(CC(F)(F)F)Nc1cccc2cc[nH]c12 [CBK153585] | 118.107 |
| Cc1nc2ccccc2n1CC(=O)N(Cc1cccnc1)C1CC1 [CBK305248] | 91.6183 |
| COc1ccc(C(=O)CSc2nnc(-c3ccccc3)[nH]2)cc1[N+](=O)[O-] [CBK263299] | 104.077 |
| Cc1[nH]c2ccccc2c1C(=O)CSc1nnc(Cc2cccs2)n1C [CBK268663] | 79.9861 |
| Cc1cn2c3c(=O)n(CCN4CCOCC4)c(=O)n(C)c3nc2n1CC1CCCO1 (stereo not shown) [CBK269985] | 154.547 |
| CC(=O)N1CCN([C@H]2[C@@H]3OC[C@@H](O3)[C@@H](NCC3CCCCC3)[C@@H]2O)CC1 [CBK288809] | 113.24 |
| Cn1c(CN2CCN(S(=O)(=O)c3ccccc3)CC2)nc2cc([N+](=O)[O-])ccc21 [CBK268321] | 98.2186 |
| O=C(c1ccc2ncccc2c1)N1CCN(C(=O)c2ccco2)CC1 [CBK144461] | 114.163 |
| CC(=O)NCCSc1cc(N2CCCC2)ncn1 [CBK105621] | 171.584 |
| Cc1c(Cc2c(Cl)cccc2Cl)c(=O)n(C)n1C [CBK113274] | 79.3514 |
| COC(C)CN(C)C(=O)c1oc2cc(C)ccc2c1C (stereo not shown) [CBK282043] | 139.639 |
| O=C(NCc1nnc(-c2cccs2)o1)C1c2ccccc2Oc2ccccc21 [CBK286297] | 120.635 |
| Cn1ccnc1C(NC(=O)N1CCCCC1)c1ccc(F)c(F)c1 (stereo not shown) [CBK283832] | 95.2958 |
| Cn1ccnc1C1(O)CCN(C(=O)Nc2ccccc2F)CC1 [CBK282280] | 73.6327 |
| CC(C)NC(=O)N1CCCC2(C1)NCCc1c2[nH]c2ccccc12 (stereo not shown) [CBK046952] | 161.379 |
| Cc1ccc(C(=O)C2=C(O)C(=O)N(CCCN(C)C)C2c2ccccn2)o1 (stereo not shown) [CBK269575] | 132.217 |
| Cc1ccccc1-c1cc(C(=O)Nc2ccc(S(N)(=O)=O)cc2)c2cc(Cl)ccc2n1 [CBK267741] | 121.363 |
| CC(C)CN1CCC[C@H]1c1nc(-c2ccc(-n3ccnc3)nc2)no1 [CBK288894] | 130.843 |
| O=C(O)/C=C/C(=O)Nc1ccc(S(=O)(=O)NCc2ccco2)cc1 [CBK264500] | 120.995 |

3 compounds picked at random from the list so far, as already listed:

| Structure (SMILES) | % of control remaining [%] |
| --- | --- |
| CCc1nnc2sc(-c3ccccc3Br)nn12 [CBK269533] | 126.626 |
| Cn1ccnc1C1(O)CCN(C(=O)Nc2ccccc2F)CC1 [CBK282280] | 73.6327 |
| CC(C)CN1CCC[C@H]1c1nc(-c2ccc(-n3ccnc3)nc2)no1 [CBK288894] | 130.843 |
